Our source for the binding values is article doi:10.64898/2025.12.23.696152 (bioRxiv, 2025).

Results are given in words; binding and its absence hold for the method and conditions named. Some entries that bind do so weakly or less than the wild type. Where a sequence is shown, tags or fusion partners need not be part of it.

The target in the assay is T1, KIF5A-mScarlet-Strep-tag II (human KIF5A, full length) (human), Q12840.
T1 chain: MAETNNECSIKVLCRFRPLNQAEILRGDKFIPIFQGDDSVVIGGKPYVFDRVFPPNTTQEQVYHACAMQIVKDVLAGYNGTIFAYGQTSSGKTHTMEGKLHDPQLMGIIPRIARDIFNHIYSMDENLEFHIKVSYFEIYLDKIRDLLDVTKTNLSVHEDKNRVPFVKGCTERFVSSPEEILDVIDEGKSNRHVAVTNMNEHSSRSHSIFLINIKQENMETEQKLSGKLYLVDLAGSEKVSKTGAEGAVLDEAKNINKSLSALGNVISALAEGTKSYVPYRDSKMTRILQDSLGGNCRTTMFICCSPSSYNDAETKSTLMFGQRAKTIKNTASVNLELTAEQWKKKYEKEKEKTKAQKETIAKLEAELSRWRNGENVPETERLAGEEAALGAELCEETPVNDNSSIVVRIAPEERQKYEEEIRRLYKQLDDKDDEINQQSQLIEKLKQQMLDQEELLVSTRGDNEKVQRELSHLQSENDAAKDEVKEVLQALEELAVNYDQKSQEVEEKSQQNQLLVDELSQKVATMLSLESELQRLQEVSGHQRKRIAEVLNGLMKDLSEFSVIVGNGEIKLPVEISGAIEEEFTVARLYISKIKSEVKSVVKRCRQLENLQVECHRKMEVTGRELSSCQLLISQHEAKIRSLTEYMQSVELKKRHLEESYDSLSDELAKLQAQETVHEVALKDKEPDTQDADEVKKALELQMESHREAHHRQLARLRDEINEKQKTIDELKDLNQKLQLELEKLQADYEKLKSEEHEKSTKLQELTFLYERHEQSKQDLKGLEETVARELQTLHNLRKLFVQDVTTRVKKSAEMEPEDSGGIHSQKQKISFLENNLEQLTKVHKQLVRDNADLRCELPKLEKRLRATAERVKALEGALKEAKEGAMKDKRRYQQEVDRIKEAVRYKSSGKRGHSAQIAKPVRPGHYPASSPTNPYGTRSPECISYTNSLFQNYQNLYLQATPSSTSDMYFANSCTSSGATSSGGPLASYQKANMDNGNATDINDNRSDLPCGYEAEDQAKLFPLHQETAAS
Kind of assay: SEC. The conditions noted are these: remark: other sources report otherwise.

B1: KIF5A-mScarlet-Strep-tag II (human KIF5A, full length), Q12840 1-1032 (protein)
chain: MAETNNECSIKVLCRFRPLNQAEILRGDKFIPIFQGDDSVVIGGKPYVFDRVFPPNTTQEQVYHACAMQIVKDVLAGYNGTIFAYGQTSSGKTHTMEGKLHDPQLMGIIPRIARDIFNHIYSMDENLEFHIKVSYFEIYLDKIRDLLDVTKTNLSVHEDKNRVPFVKGCTERFVSSPEEILDVIDEGKSNRHVAVTNMNEHSSRSHSIFLINIKQENMETEQKLSGKLYLVDLAGSEKVSKTGAEGAVLDEAKNINKSLSALGNVISALAEGTKSYVPYRDSKMTRILQDSLGGNCRTTMFICCSPSSYNDAETKSTLMFGQRAKTIKNTASVNLELTAEQWKKKYEKEKEKTKAQKETIAKLEAELSRWRNGENVPETERLAGEEAALGAELCEETPVNDNSSIVVRIAPEERQKYEEEIRRLYKQLDDKDDEINQQSQLIEKLKQQMLDQEELLVSTRGDNEKVQRELSHLQSENDAAKDEVKEVLQALEELAVNYDQKSQEVEEKSQQNQLLVDELSQKVATMLSLESELQRLQEVSGHQRKRIAEVLNGLMKDLSEFSVIVGNGEIKLPVEISGAIEEEFTVARLYISKIKSEVKSVVKRCRQLENLQVECHRKMEVTGRELSSCQLLISQHEAKIRSLTEYMQSVELKKRHLEESYDSLSDELAKLQAQETVHEVALKDKEPDTQDADEVKKALELQMESHREAHHRQLARLRDEINEKQKTIDELKDLNQKLQLELEKLQADYEKLKSEEHEKSTKLQELTFLYERHEQSKQDLKGLEETVARELQTLHNLRKLFVQDVTTRVKKSAEMEPEDSGGIHSQKQKISFLENNLEQLTKVHKQLVRDNADLRCELPKLEKRLRATAERVKALEGALKEAKEGAMKDKRRYQQEVDRIKEAVRYKSSGKRGHSAQIAKPVRPGHYPASSPTNPYGTRSPECISYTNSLFQNYQNLYLQATPSSTSDMYFANSCTSSGATSSGGPLASYQKANMDNGNATDINDNRSDLPCGYEAEDQAKLFPLHQETAAS
Regarding B1, the binding result is “binds”.
